The other results are listed elsewhere or left out.
compound: CC1Cc2ccccc2N1C(=O)C1CCCN(C1)C(=O)CCl (mixture of isomers) [TRIM25 ligand 11 (diastereomer mixture)]; experiment: probe-labelled cysteine peptide fold change vs DMSO (competition) (log2 fold change); higher = less target engagement (more negative = stronger competition); details: 50 µM; THP-1; incubation time: 4 h
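Note: competitive chemoproteomic profiling in live THP-1 cells with an iodoacetamide desthiobiotin (IA-DTB) probe, comparing probe-labelled peptide intensities in compound-treated cells against DMSO-treated controls.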

Amino acid sequences for entries named in this document (tags omitted). A change or cut given only in a name is not applied to a line headed by its entry.
UniProt P49368: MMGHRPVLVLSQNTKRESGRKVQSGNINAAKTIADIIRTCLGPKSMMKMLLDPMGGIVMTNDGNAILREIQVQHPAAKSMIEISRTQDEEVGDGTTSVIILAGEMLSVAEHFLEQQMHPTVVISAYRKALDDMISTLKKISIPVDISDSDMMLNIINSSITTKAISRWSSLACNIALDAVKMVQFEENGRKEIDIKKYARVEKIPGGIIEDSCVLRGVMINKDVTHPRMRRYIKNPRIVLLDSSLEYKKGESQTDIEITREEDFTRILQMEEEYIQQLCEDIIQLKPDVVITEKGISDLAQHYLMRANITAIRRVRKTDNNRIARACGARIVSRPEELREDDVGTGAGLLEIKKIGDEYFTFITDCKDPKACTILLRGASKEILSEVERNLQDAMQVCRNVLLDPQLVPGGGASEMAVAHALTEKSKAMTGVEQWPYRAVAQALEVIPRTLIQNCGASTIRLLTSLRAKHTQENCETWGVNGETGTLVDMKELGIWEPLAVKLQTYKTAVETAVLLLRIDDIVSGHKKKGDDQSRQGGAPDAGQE
UniProt P29466: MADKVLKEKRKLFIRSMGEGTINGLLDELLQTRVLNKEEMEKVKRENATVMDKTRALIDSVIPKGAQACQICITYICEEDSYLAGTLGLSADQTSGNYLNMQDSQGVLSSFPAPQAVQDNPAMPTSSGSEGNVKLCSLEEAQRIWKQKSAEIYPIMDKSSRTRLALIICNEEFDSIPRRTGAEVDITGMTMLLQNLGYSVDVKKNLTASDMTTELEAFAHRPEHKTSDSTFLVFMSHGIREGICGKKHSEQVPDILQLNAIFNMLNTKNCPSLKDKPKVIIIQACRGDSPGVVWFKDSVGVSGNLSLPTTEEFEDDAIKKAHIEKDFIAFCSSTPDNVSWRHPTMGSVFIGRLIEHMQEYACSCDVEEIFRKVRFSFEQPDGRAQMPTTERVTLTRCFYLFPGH
UniProt P49589: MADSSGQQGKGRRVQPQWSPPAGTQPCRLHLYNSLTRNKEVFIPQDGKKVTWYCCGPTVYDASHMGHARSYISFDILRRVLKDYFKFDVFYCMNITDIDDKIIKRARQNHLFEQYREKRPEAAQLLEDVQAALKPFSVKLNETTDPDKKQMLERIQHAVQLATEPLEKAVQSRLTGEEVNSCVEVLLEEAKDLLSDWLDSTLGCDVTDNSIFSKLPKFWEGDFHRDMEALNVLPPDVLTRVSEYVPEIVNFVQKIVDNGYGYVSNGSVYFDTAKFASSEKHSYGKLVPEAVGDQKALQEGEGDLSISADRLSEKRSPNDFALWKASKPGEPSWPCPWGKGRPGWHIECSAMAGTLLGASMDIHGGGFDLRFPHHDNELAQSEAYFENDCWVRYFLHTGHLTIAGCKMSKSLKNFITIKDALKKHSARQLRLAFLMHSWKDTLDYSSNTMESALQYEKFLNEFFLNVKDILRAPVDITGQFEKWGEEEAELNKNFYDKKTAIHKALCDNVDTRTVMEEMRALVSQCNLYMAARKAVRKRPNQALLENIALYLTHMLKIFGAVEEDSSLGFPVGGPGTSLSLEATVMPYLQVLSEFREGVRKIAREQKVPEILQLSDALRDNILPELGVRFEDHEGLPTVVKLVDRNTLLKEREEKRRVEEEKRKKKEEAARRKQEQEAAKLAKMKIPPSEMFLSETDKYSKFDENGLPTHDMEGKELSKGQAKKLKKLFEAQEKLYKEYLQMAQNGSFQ
UniProt P27824: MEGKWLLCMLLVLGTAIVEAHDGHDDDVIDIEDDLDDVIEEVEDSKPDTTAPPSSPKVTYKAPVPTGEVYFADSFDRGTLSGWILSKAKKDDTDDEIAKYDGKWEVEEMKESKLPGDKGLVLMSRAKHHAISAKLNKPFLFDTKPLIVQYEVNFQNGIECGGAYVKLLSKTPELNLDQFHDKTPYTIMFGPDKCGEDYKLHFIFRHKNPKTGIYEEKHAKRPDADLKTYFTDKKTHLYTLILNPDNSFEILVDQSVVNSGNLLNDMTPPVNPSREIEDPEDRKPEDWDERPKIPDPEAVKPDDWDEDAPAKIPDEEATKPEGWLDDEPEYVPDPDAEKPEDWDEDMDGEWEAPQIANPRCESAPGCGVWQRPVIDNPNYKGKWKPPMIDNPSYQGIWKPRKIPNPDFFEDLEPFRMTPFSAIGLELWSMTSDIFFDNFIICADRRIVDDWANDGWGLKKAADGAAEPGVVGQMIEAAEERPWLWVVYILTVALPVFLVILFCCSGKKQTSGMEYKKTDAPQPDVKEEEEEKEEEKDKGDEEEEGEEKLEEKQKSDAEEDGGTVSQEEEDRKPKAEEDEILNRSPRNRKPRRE
UniProt Q8N4S0: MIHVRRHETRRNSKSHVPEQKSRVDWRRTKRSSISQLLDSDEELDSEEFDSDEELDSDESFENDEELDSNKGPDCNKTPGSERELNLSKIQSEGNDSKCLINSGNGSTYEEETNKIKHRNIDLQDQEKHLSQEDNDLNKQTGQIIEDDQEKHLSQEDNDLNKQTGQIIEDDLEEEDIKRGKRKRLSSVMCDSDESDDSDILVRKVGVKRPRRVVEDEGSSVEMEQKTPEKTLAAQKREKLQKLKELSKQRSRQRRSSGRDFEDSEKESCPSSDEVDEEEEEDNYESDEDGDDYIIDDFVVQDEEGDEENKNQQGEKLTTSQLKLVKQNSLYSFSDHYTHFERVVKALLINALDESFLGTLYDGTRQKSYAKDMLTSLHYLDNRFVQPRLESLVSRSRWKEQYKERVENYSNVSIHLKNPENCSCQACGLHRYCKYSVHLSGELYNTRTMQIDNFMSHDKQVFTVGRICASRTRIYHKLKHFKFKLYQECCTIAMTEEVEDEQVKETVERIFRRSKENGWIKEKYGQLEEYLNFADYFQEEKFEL
UniProt Q9Y6W3: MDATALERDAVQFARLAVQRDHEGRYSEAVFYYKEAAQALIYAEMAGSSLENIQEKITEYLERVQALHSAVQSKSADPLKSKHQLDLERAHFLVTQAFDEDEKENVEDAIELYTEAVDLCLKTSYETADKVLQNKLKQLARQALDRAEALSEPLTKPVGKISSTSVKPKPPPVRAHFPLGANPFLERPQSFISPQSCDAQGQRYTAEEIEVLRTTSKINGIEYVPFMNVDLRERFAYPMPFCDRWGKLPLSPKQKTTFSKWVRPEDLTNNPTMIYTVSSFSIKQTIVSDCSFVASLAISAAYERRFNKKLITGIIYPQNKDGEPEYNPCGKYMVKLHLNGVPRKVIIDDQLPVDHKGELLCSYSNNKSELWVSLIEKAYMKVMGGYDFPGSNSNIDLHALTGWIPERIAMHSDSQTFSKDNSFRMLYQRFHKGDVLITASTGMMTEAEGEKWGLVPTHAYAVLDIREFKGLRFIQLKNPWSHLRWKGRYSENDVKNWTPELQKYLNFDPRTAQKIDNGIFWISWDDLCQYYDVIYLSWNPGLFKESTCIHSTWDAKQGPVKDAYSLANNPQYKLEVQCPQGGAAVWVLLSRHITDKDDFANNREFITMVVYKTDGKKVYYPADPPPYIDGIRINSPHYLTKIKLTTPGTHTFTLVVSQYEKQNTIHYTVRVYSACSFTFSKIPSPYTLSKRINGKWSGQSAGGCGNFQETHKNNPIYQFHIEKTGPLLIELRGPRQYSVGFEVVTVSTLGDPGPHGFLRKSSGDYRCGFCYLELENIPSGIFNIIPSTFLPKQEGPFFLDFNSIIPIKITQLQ
UniProt Q8N163, whole entry, looked up: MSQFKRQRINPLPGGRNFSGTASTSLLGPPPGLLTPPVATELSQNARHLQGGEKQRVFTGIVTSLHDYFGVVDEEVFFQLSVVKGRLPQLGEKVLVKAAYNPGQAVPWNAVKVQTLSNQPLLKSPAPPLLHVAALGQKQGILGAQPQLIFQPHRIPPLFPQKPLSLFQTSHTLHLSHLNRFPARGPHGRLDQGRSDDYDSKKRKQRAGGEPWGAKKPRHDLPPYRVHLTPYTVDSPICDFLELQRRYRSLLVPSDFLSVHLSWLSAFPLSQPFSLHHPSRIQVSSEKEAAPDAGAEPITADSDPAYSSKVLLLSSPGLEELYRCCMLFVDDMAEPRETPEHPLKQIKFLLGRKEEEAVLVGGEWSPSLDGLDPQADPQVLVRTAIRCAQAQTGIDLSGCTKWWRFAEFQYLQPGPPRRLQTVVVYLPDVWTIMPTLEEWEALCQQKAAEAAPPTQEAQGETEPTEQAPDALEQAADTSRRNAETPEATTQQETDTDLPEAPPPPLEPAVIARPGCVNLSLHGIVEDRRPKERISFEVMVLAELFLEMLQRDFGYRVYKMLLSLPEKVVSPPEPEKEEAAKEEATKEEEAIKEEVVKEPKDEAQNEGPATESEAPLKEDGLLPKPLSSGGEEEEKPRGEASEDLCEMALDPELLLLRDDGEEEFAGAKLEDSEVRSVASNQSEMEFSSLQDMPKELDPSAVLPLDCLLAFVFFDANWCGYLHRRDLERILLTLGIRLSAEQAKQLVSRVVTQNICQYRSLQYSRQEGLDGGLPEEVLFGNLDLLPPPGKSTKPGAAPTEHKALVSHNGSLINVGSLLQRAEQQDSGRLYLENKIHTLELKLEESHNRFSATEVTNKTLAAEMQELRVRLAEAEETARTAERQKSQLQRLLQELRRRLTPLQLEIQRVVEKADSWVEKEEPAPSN
UniProt Q86X55: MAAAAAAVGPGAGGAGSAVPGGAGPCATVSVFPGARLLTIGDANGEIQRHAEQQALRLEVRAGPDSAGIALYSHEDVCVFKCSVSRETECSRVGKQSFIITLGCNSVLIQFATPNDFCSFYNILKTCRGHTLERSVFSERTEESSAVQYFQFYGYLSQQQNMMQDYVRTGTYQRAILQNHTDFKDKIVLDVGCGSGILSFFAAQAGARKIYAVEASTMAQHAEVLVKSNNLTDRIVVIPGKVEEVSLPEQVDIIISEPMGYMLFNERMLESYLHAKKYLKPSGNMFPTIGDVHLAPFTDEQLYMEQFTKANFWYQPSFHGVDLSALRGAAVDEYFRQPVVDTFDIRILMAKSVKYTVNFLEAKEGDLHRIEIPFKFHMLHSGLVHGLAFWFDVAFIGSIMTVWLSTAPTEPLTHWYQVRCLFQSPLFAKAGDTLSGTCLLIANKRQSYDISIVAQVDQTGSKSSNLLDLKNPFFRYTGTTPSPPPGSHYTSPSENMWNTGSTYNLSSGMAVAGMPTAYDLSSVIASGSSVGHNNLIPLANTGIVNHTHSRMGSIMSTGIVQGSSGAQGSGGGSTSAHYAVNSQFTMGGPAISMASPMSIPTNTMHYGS
UniProt Q01518, whole entry, looked up: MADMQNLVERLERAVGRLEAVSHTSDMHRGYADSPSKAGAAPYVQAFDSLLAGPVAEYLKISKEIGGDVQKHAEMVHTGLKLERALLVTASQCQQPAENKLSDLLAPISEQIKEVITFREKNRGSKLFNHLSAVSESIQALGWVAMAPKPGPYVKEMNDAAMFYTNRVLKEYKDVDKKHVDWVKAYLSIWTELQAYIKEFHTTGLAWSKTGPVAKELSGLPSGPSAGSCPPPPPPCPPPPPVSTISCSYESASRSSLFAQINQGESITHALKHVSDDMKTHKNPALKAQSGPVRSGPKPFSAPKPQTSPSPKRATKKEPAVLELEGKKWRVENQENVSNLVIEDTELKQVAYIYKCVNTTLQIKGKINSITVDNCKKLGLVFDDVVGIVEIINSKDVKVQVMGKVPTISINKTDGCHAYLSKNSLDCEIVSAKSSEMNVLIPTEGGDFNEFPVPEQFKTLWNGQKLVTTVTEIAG
UniProt P50991: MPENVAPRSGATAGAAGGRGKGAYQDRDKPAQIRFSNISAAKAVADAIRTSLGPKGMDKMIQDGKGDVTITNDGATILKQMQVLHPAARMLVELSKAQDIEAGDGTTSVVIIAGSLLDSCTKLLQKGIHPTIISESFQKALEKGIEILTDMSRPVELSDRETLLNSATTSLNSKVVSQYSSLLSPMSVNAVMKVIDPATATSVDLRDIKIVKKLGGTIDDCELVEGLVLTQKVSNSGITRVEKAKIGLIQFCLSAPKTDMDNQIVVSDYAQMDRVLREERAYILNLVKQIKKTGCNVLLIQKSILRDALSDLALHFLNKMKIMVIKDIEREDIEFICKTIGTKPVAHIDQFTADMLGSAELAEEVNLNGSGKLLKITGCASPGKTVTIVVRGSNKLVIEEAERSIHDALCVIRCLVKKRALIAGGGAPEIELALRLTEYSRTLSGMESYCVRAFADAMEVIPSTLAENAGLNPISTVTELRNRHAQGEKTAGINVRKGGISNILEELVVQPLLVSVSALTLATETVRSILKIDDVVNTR

Target | probe-labelled cysteine peptide fold change
CCT3_P49368_398_NLQDAMQVCR (UniProt P49368) | -0.151
CASP1_P29466_136_LCSLEEAQR (UniProt P29466) | 0.0769
CAPZA2_P47755_111_EATDPRPCEVENAVESWR (UniProt P47755) | 0.0405
CAPNS1_P04632_190_SGTICSSELPGAFEAAGFHLNEHLYNMIIRR (UniProt P04632) | 0.116
CARS_P49589_525_ALVSQCNLYMAAR (UniProt P49589) | 0.026
CANX_P27824_360+366_CESAPGCGVWQR (UniProt P27824) | 0.148
CCDC82_Q8N4S0_422+424_NPENCSCQACGLHR (UniProt Q8N4S0) | 0.0726
CASP8_Q14790_309+313_IYQLMDHSNMDCFICCILSHGDK (UniProt Q14790) | 0.178
CAPN7_Q9Y6W3_361_KVIIDDQLPVDHKGELLCSYSNNK (UniProt Q9Y6W3) | -0.115
CCAR2_Q8N163_515_PGCVNLSLHGIVEDR (UniProt Q8N163) | 0.0205
CARM1_Q86X55_438_AGDTLSGTCLLIANKR (UniProt Q86X55) | 0.0552
CAP1_Q01518_93_ALLVTASQCQQPAENK (UniProt Q01518) | -0.135
CAPNS1_P04632_232_YSDESGNMDFDNFISCLVR (UniProt P04632) | 0.0576
CAP1_Q01518_375_GKINSITVDNCKK (UniProt Q01518) | -0.366
CCT4_P50991_120_AQDIEAGDGTTSVVIIAGSLLDSCTK (UniProt P50991) | 0.108
CAPN7_Q9Y6W3_329_DGEPEYNPCGK (UniProt Q9Y6W3) | 0.0321

Pulled one by one from above, 2 records:
Target | probe-labelled cysteine peptide fold change
CCT3_P49368_398_NLQDAMQVCR (UniProt P49368) | -0.151
CAP1_Q01518_93_ALLVTASQCQQPAENK (UniProt Q01518) | -0.135
